From publication PMC12635394, “UBE2O-mediated ubiquitylation directs cytoplasmic CTNNA1 to promote cell-to-ECM adhesions” (EMBO Reports, 2025)
No constants are given. Whether binding was seen depends on the method and setting. For some assays here: In cells and extracts the contact can be indirect. Some results given as binding are weak or reduced against the parent protein; the word gives no strength. For some assays here: Where a sequence is shown, tags or fusion partners need not be part of it. Each block holds one molecule with its values, some of them ahead of it.

Chains of the proteins cited; added tags and fusions are not shown.
UniProt P35222: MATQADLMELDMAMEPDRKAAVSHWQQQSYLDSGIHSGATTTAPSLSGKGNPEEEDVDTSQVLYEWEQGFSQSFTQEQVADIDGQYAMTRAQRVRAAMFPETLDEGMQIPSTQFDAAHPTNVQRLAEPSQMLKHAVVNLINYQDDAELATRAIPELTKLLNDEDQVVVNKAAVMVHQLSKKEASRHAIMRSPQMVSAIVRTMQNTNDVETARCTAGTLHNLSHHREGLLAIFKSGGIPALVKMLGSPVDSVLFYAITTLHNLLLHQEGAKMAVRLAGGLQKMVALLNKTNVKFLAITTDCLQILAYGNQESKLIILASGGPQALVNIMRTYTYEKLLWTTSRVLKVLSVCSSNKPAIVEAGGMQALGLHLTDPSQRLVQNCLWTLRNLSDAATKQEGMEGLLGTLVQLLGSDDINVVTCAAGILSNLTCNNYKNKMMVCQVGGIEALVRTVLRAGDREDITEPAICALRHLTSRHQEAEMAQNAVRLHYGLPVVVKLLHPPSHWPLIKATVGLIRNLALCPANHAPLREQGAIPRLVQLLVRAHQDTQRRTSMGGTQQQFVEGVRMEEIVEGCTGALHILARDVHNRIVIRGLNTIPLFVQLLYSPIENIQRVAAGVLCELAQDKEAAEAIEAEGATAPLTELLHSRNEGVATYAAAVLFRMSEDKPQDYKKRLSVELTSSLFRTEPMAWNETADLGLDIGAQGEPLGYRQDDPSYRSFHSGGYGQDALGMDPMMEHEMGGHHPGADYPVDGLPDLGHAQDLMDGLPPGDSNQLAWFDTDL

What was measured:
[1] = target: Myc-CTNNA1 (full-length mouse Ctnna1, expressed in cells) (mouse) (UniProt P26231); assay: co-IP; UBE2O and CTNNA1 expressed in HEK293T with or without co-expressed β-catenin, immunoblot
[2] = target: CTNNA1-V5 (purified mouse CTNNA1 with C-terminal V5 tag) (mouse) (UniProt P26231); assay: pull-down; 0.1 μM CTNNA1-V5 pre-incubated overnight at 4 °C with 0, 25 or 50 nM His-GST-β-catenin, captured on BSA-blocked V5-Trap beads, washed, then 0.1 μM Flag-UBE2O-TS for 1.5 h at 4 °C, immunoblot; both purified
[3] = target: T1, Flag-UBE2O (full length, expressed in cells) (human) (UniProt Q9C0C9); assay: co-IP; co-expression of tagged full-length or truncated proteins in transfected cells (36 h), anti-Flag M2 affinity gel 90 min at 4 °C, immunoblot
T1 sequence: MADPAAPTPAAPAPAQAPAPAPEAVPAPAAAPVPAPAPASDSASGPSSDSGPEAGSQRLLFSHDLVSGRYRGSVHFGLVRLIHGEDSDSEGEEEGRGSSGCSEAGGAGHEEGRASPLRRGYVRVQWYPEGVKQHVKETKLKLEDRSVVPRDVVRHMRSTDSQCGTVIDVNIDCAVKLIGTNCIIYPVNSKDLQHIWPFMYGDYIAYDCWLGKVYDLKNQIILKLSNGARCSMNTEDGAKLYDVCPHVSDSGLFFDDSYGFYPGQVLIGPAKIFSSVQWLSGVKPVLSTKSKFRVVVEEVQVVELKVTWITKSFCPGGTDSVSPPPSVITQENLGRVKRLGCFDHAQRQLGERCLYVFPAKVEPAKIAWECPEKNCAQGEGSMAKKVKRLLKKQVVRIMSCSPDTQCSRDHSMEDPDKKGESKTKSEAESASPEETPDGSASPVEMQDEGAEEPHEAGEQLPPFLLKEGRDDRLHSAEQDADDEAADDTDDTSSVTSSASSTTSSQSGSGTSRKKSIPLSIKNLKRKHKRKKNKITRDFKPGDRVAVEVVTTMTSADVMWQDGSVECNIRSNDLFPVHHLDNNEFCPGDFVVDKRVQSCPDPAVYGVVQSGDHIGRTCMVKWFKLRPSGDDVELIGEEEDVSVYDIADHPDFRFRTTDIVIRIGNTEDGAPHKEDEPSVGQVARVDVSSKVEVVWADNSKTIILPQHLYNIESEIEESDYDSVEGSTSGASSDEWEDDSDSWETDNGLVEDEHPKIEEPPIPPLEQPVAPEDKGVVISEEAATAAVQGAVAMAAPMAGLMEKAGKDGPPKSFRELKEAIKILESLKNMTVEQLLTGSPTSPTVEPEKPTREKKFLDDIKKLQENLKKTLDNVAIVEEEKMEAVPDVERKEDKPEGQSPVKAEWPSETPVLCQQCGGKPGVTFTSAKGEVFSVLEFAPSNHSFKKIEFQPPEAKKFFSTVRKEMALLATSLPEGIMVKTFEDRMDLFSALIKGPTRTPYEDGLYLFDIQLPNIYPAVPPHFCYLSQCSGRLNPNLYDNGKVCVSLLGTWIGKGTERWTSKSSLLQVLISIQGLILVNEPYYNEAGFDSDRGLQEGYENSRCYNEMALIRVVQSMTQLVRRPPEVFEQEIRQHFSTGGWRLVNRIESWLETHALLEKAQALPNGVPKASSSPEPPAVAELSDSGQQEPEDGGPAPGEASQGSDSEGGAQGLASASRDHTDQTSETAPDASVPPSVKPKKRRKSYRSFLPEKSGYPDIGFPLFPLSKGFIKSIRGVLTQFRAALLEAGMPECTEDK

[4] = target: T1, Flag-UBE2O (full length, expressed in cells) (human); assay: co-IP; UBE2O and CTNNA1 expressed in HEK293T with or without co-expressed β-catenin, immunoblot
[5] = target: T2, CTNNA1-V5 (purified mouse CTNNA1 with C-terminal V5 tag) (mouse), P26231; assay: pull-down; ctrl, CTNNA1-V5 (no ATP) or ubiquitylated CTNNA1-V5 baits on V5-Trap magnetic agarose, incubated overnight at 4 °C with lysate of HEK293T, MDCK, MEFs or HEK293T expressing Flag-CTNNA1 or Flag-CTNNA2, immunoblot; only the target purified; conditions: remark: other sources report otherwise
T2 chain: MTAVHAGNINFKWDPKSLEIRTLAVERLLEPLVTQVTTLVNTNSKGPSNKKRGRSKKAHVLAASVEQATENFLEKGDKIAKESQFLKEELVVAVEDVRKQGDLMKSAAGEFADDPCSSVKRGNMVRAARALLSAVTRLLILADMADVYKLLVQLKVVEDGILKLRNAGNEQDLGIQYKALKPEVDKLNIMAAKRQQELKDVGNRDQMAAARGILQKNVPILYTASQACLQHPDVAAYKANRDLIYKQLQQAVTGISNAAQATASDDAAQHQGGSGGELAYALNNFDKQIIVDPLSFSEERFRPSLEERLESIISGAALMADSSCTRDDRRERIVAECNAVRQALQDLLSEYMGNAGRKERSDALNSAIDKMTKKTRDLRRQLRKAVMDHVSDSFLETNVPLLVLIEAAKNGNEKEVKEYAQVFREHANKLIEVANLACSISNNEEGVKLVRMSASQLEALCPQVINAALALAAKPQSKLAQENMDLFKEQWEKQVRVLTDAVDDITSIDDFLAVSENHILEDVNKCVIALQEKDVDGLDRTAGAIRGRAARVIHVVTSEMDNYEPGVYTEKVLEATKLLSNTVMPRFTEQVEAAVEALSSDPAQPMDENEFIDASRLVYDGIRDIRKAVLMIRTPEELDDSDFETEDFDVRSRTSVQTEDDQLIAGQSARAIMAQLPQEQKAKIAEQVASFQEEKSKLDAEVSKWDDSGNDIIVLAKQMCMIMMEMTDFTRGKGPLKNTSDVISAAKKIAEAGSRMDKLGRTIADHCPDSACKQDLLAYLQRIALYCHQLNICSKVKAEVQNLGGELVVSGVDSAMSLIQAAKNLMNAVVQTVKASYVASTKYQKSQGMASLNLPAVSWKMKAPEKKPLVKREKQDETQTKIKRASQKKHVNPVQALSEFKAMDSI

Molecule: His-GST-β-catenin protein (from UniProt P35222 1-781)
binding [2]: binds

Molecule: Myc-CTNNA1 (full-length mouse Ctnna1, expressed in cells) (from UniProt P26231 1-906)
binding [3]: binds
binding [4]: binds

Second part, the molecule after the results:

binding [1]: binds
Molecule: Flag-CTNNB1 (human β-catenin, expressed in cells) (from UniProt P35222 1-781)

binding [5]: binds
B1: Flag-tagged CTNNA1 (full-length mouse Ctnna1), P26231 1-906 (protein)
chain: MTAVHAGNINFKWDPKSLEIRTLAVERLLEPLVTQVTTLVNTNSKGPSNKKRGRSKKAHVLAASVEQATENFLEKGDKIAKESQFLKEELVVAVEDVRKQGDLMKSAAGEFADDPCSSVKRGNMVRAARALLSAVTRLLILADMADVYKLLVQLKVVEDGILKLRNAGNEQDLGIQYKALKPEVDKLNIMAAKRQQELKDVGNRDQMAAARGILQKNVPILYTASQACLQHPDVAAYKANRDLIYKQLQQAVTGISNAAQATASDDAAQHQGGSGGELAYALNNFDKQIIVDPLSFSEERFRPSLEERLESIISGAALMADSSCTRDDRRERIVAECNAVRQALQDLLSEYMGNAGRKERSDALNSAIDKMTKKTRDLRRQLRKAVMDHVSDSFLETNVPLLVLIEAAKNGNEKEVKEYAQVFREHANKLIEVANLACSISNNEEGVKLVRMSASQLEALCPQVINAALALAAKPQSKLAQENMDLFKEQWEKQVRVLTDAVDDITSIDDFLAVSENHILEDVNKCVIALQEKDVDGLDRTAGAIRGRAARVIHVVTSEMDNYEPGVYTEKVLEATKLLSNTVMPRFTEQVEAAVEALSSDPAQPMDENEFIDASRLVYDGIRDIRKAVLMIRTPEELDDSDFETEDFDVRSRTSVQTEDDQLIAGQSARAIMAQLPQEQKAKIAEQVASFQEEKSKLDAEVSKWDDSGNDIIVLAKQMCMIMMEMTDFTRGKGPLKNTSDVISAAKKIAEAGSRMDKLGRTIADHCPDSACKQDLLAYLQRIALYCHQLNICSKVKAEVQNLGGELVVSGVDSAMSLIQAAKNLMNAVVQTVKASYVASTKYQKSQGMASLNLPAVSWKMKAPEKKPLVKREKQDETQTKIKRASQKKHVNPVQALSEFKAMDSI
